Reference: publication PMC12476982
Like-named read-outs stand apart in the source and are kept apart here. These are yes or no findings as the source states them, for the method shown. Some binding calls cover weakened binding; strength is not graded here.

Chains of the proteins cited; added tags and fusions are not shown. Lines headed by an entry give the natural chain unless they say otherwise; changes in a name come on top.
UniProt P51532: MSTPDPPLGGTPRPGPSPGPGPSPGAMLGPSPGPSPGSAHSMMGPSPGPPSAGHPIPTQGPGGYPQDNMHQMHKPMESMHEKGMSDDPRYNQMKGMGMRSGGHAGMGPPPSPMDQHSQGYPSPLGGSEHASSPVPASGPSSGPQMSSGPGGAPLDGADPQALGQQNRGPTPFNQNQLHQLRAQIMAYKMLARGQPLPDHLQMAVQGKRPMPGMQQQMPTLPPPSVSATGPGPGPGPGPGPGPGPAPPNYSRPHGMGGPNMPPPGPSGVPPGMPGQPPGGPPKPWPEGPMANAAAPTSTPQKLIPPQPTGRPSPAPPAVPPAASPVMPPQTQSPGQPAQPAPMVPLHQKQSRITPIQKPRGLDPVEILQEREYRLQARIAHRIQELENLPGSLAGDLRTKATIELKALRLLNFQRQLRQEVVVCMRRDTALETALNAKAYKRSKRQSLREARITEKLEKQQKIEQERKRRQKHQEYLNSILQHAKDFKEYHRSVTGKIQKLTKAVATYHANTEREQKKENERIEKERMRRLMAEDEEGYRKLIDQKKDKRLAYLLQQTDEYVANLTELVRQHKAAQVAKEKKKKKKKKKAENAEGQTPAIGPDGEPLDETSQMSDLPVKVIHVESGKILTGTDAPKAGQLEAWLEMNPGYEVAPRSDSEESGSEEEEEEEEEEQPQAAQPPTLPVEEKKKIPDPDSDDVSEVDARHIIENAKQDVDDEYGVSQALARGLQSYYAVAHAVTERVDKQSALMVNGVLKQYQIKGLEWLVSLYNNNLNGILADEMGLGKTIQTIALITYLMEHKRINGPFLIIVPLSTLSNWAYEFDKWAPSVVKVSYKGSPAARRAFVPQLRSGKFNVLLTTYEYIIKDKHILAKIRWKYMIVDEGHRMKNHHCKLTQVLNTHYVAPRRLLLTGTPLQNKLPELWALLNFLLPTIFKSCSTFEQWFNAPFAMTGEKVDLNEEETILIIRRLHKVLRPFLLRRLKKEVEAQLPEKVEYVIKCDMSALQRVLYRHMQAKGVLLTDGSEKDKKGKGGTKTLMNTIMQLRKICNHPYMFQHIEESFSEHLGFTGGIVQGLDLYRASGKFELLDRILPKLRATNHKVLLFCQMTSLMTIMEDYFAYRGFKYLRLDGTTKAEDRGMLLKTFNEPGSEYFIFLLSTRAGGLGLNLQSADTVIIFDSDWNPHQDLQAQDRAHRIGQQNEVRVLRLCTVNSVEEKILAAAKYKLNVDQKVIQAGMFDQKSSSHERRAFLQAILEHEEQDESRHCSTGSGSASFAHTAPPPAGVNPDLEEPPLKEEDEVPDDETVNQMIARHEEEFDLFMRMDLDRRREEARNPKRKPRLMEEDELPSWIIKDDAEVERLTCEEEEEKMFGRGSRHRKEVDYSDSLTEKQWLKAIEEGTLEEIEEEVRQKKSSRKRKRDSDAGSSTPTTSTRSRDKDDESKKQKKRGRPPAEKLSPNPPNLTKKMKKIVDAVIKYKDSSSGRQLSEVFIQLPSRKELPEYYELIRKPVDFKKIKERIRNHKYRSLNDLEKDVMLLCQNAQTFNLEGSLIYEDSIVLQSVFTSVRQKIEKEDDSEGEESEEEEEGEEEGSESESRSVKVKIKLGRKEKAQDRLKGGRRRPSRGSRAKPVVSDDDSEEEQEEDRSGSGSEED
UniProt O14497: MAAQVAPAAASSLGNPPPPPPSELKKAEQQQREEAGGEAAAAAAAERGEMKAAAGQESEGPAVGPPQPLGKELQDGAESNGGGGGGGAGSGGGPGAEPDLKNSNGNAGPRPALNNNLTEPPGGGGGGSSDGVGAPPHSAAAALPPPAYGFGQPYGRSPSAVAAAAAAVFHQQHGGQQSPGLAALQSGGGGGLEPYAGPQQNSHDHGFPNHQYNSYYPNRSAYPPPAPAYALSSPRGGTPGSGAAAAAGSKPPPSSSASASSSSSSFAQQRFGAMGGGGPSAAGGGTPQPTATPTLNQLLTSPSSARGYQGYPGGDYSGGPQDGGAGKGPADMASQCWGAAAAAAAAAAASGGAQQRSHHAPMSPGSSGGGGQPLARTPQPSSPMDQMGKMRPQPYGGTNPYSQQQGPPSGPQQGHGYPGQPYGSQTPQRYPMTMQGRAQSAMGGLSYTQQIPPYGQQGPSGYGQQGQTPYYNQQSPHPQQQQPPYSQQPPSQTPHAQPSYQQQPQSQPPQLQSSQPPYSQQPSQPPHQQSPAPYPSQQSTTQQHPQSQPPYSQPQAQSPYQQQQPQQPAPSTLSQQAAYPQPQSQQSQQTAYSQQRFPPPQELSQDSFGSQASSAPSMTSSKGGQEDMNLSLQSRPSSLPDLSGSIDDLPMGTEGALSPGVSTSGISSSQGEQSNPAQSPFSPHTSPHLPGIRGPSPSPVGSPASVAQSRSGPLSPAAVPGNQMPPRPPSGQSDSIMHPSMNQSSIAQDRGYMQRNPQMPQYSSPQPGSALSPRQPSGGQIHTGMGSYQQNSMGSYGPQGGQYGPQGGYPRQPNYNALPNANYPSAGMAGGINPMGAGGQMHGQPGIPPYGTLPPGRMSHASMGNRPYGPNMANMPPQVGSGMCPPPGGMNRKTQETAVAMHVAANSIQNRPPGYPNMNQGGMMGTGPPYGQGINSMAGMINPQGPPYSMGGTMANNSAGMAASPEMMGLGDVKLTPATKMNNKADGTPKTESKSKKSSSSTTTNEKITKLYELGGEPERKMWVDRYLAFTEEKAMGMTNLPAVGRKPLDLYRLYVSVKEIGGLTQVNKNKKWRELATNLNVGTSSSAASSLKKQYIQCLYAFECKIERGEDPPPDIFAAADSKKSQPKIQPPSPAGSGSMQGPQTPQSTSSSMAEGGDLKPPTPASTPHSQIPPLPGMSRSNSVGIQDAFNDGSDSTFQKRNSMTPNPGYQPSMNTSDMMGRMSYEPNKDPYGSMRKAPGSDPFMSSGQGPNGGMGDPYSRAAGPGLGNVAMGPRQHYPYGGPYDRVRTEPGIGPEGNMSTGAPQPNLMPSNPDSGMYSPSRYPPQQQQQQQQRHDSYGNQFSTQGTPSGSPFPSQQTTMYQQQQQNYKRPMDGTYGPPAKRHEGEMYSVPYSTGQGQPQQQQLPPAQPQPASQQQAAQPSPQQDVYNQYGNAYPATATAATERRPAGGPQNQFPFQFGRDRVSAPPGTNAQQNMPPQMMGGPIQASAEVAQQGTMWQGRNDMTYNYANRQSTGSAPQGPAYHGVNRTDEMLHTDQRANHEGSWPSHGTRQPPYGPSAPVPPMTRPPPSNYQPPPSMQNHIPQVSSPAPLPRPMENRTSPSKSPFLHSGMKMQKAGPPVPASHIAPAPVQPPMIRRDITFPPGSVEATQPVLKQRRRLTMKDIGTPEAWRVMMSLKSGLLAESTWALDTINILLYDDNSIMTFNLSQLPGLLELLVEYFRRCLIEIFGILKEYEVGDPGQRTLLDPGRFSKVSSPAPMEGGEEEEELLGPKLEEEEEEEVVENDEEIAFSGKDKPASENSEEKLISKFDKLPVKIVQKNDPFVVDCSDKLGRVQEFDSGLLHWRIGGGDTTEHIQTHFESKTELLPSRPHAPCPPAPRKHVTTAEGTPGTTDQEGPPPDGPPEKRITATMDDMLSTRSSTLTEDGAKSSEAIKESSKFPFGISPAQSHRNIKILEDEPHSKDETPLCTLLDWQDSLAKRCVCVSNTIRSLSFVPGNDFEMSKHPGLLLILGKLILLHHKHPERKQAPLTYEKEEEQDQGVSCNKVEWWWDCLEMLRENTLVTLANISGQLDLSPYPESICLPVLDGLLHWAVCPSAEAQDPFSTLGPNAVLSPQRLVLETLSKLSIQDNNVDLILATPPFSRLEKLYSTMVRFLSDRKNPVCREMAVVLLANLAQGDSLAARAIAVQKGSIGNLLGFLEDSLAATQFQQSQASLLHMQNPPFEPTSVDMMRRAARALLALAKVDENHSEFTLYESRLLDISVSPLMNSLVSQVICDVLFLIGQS
UniProt Q9H8M2: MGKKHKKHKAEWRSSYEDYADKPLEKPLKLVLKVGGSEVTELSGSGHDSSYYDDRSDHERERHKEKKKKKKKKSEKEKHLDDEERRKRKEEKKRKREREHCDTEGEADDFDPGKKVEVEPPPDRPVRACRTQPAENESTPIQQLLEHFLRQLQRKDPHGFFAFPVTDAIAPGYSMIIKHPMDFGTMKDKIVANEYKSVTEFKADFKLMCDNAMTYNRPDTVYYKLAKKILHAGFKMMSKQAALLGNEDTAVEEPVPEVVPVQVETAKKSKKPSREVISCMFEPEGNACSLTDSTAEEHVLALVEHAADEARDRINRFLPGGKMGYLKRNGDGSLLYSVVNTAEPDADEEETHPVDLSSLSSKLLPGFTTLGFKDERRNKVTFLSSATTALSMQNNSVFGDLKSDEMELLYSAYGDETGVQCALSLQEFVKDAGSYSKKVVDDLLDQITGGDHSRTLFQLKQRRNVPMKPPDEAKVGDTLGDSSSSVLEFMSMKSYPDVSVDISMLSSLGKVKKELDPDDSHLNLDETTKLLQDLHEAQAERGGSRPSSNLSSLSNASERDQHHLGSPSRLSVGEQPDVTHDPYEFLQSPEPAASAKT
UniProt Q9NZM4: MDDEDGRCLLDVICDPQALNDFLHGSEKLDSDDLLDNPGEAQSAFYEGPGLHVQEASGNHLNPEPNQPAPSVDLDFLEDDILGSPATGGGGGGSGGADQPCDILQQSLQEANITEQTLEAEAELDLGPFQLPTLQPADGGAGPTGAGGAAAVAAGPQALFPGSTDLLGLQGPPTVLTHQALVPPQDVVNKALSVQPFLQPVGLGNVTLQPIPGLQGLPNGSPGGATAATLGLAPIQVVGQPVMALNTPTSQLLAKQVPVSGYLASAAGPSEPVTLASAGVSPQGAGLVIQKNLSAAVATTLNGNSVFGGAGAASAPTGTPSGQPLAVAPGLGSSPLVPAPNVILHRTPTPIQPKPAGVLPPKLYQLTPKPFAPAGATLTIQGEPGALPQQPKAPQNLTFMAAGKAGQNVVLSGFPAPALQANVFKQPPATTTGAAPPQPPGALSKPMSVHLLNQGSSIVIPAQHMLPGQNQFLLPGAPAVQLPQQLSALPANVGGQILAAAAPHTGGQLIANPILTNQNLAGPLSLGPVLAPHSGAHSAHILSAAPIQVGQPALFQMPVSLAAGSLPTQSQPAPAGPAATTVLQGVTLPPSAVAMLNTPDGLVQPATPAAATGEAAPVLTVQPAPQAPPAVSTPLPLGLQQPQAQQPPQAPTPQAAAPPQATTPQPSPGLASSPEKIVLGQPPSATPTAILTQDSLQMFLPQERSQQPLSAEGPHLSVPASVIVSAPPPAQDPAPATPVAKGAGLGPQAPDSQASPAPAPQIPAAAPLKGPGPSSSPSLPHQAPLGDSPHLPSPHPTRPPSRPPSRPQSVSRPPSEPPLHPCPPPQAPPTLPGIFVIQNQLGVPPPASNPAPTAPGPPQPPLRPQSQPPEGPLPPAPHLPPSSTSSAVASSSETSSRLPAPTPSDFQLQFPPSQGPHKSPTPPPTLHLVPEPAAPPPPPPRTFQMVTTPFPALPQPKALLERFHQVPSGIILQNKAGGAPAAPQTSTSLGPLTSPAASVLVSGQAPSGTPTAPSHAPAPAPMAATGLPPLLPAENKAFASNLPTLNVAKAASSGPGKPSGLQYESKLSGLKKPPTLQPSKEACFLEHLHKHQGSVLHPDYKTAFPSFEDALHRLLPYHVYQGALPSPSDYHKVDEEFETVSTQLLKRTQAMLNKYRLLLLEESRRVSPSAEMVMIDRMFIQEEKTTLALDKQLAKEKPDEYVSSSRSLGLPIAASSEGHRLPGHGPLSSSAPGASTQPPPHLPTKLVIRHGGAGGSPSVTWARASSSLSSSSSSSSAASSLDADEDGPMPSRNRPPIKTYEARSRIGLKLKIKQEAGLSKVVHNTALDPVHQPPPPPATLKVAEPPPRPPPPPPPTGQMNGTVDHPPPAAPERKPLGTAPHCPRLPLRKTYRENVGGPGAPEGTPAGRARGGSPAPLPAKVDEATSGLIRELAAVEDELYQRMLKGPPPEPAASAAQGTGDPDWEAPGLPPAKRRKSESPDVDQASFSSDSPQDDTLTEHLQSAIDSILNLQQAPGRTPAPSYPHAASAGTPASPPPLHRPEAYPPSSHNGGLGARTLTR
UniProt Q15532: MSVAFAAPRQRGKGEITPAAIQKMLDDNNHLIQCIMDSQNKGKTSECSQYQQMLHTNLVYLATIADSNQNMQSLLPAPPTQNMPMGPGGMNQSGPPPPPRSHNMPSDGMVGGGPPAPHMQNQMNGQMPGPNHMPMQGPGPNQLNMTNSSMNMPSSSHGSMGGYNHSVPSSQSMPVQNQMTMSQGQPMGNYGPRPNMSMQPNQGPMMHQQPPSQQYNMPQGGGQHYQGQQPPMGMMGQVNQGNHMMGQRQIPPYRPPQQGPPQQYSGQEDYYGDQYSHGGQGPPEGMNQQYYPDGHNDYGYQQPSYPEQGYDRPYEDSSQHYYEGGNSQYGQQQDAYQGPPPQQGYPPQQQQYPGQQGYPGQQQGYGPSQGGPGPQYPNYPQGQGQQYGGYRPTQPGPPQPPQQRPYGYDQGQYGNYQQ

B1: PHF10 (protein, UniProt Q8WUB8 1-498)
chain: MAAAAGPGAALSPRPCDSDPATPGAQSPKDDNEDNSNDGTQPSKRRRMGSGDSSRSCETSSQDLGFSYYPAENLIEYKWPPDETGEYYMLQEQVSEYLGVTSFKRKYPDLERRDLSHKEKLYLRELNVITETQCTLGLTALRSDEVIDLMIKEYPAKHAEYSVILQEKERQRITDHYKEYSQMQQQNTQKVEASKVPEYIKKAAKKAAEFNSNLNRERMEERRAYFDLQTHVIQVPQGKYKVLPTERTKVSSYPVALIPGQFQEYYKRYSPDELRYLPLNTALYEPPLDPELPALDSDGDSDDGEDGRGDEKRKNKGTSDSSSGNVSEGESPPDSQEDSFQGRQKSKDKAATPRKDGPKRSVLSKSVPGYKPKVIPNAICGICLKGKESNKKGKAESLIHCSQCENSGHPSCLDMTMELVSMIKTYPWQCMECKTCIICGQPHHEEEMMFCDMCDRGYHTFCVGLGAIPSGRWICDCCQRAPPTPRKVGRRGKNSKEG

What was measured:
BRG1 (SMARCA4) (human) [1] = biological target: BRG1 (SMARCA4) (human) (UniProt P51532); assay: co-purification of co-expressed subunits (Strep-tag affinity); subunits co-expressed in Sf9; lysate in 350 mM NaCl, 20 mM HEPES pH 7.5, 10% glycerol, 0.1% Tween; StrepTactin HP column by the twin Strep-tag of BRG1 (in ncBAF GLTSCR1 carries it too), eluted with 10 mM desthiobiotin, then Q Sepharose salt gradient; subunits seen by Coomassie SDS-PAGE and mass spectrometry, ARID1A truncations also by western blot; subunits left out in turn (BAF8 subcomplexes, ΔDPF2, ΔARID1)
BRG1 (SMARCA4) (human) [2] = biological target: BRG1 (SMARCA4) (human) (UniProt P51532); assay: as above; remark: listed apart in the source

Row | Molecule | binding (BRG1 (SMARCA4) (human) [1]) | binding (BRG1 (SMARCA4) (human) [2])
1 | ARID1A truncation A1A Δ990 (from UniProt O14497 991-2285) (domain or fragment) | binds | 
2 | ARID1A truncation A1A Δ1124 (from UniProt O14497 1125-2285) (domain or fragment) | binds | 
3 | ARID1A truncation A1A Δ1660 (from UniProt O14497 1661-2285) (domain or fragment) | binds | 
4 | ARID1A truncation A1A Δ1698 (from UniProt O14497 1699-2285) (domain or fragment) | binds | 
5 | ARID1A truncation A1A Δ1960 (from UniProt O14497 1961-2285) (domain or fragment) | binds | 
6 | BAF170 (SMARCC2) (from UniProt Q8TAQ2 1-1214) | binds | 
7 | BCL7a (from UniProt Q4VC05 1-210) | binds | 
8 | BRD9 (from UniProt Q9H8M2 1-597) | binds | 
9 | DPF2 (from UniProt Q92785 1-391) | binds | 
10 | GLTSCR1 (from UniProt Q9NZM4 1-1560) | binds | 
11 | SS18 (from UniProt Q15532 1-418) | binds | 
12 | B1 |  | binds
